Data reported in patent US11952554B2, “Alkyl polyglycoside-containing cleaning formulations for chemically sensitive individuals” (Living Clean NZ, Ltd., priority 2021, dated 2024).

Assay: Percent Modern Carbon (pMC), estimated from feedstocks or determined by ASTM D6866-05
Format: physicochemical
[1] = surfactant raw materials, Table 3

SMILES | Percent Modern Carbon (pMC) [1] [%] | Percent Modern Carbon (pMC) (surfactant feedstock chain length study, Table 5) [%] | pMC value (ethanol derived from plant sources (fermentation)) [%] | pMC value (ethanol made from petrochemical processes, expected) [%]
CCCCCCCCCCCCOS(=O)(=O)[O-].[Na+] [Sodium lauryl sulfate] | 0 |  |  | 
CCCCCCCCOS(=O)(=O)[O-].[Na+] [Sodium octyl sulfate (from bio-basis), Sodium octyl sulfate] | 100 | 100 |  | 
CCO [ethanol] |  |  | 100 | 0
